From US7244712B2, “Aminoglycoside antibiotics and methods of using same” (priority 2004, dated 2007) come the findings set out here.

The data set concerns 70S ribosome. Put plainly: Fluorescence anisotropy binding to 70S ribosomes. The arrangement: species or system E. coli. The protocol:
After establishing the lack of stereospecificity in the binding of aminoglycosides to the A-site RNA constructs (FIG. 9A-C) where the binding affinity, KD, is about 0.1 μM to about 100 μM, the stereospecificity of aminoglycoside binding to intact ribosomes was determined. Both yeast and E. coli ribosomes were prepared and aminoglycoside binding was measured using fluorescence anisotropy methods. For example, fluorescence anisotropy methods recited in Wang, Y., and Rando, R. R. Chem. Biol. (1995) 2, 281-290; and Wang, Y., Hamasaki, K., and Rando, R. R. Biochemistry (1997) 36,768-779. CRP was used as the binding probe. […]
5-Carboxytetramethylrhodamine-labeled paromomycin (CRP) and tobramycin (CRT) concentrations were determined spectroscopically at 550 nm using a molar extinction coefficient of 6.00×10 4 M −1 cm −1. Fluorescence anisotropy measurements were performed on a Perkin-Elmer LS-50B luminescence spectrometer equipped with a thermostat accurate to ±0.1° C. as indicated previously (Wang, Y., Hamasaki, K., & Rando, R. R. (1997) Biochemistry 36, 768-779). The tracer solution was excited at 550 nm and monitored at 580 nm. […]
Equation 2 is used for the calculation of the KD values in the competition binding assay. […] Both Kd and KD were determined by non-linear curve fitting using the equations described above, and are presented as mean values of three independent measurements. […]

The structures appear in SMILES notation. Entries after “also recorded” stand apart in the source; their conditions may differ.

On to `NCC1OC(OC2C(N)CC(N)C(O)C2O)C(N)C(O)C1O` (single isomer, unassigned) [4-Isomer of L-Neamine (ent-3), 4-isomer of L-Neamine], for which the “Preference for bacterial ribosome over eukaryotic, yeast ribosome” value (70S versus 80S) is given as “fivefold”.

Turning to `NCC1OC(OC2C(N)CC(N)C(O)C2O)C(N)C(O)C1O` [L-Neamine], the “Affinity for E. coli ribosomes relative to D-neamine” value was “two-fold greater affinity; also recorded: approximately two-fold higher affinity”.
